Measured data: PubChem BioAssay AID1259405 (NCATS, 2018)

Aim: 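Mouse-designed siRNAs used to find CHO productivity engineering targets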 (primary screen)
Cell system: Chinese hamster CHO-K1 ovary cells with stable secreted eGFP expression
Reagent: single siRNA against mouse genes, 0.8 pmol siRNA per well (2 µl of 400 nM stock)
Time to read-out: 3 days
Detection: 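Percent of the per-plate non-targeting control median for intracellular GFP per well by laser scanning cytometry and for cell viability by ATP luminescence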
Scale: GFP, % of control: higher = more GFP per well, higher productivity; viability (ATP), % of control: higher = more viable cells (more ATP)
Call rule: 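a knock-down is called active if GFP reaches 120% or more of non-targeting control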
This is a random part of about 50,000 deposited reagents. About 4,000 of all reagents (8%) count as active. 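Mouse siRNA library applied to hamster cells; one well for each siRNA.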 Reagents against one gene are numbered here.

| gene | reagent no. | GFP, % of control | viability (ATP), % of control | activity call |
| --- | --- | --- | --- | --- |
| C1ql1 (complement component 1, q subcomponent-like 1) | 1 | 20.4 | 34.3 | inactive |
| C1ql1 (complement component 1, q subcomponent-like 1) | 2 | 63.1 | 44.8 | inactive |
| C1ql1 (complement component 1, q subcomponent-like 1) | 3 | 64.2 | 68.9 | inactive |
| Aurkb (aurora kinase B) | 1 | 77.3 | 86.6 | inactive |
| Setd7 (SET domain containing (lysine methyltransferase) 7) | 1 | 134 | 85.5 | active |
| Setd7 (SET domain containing (lysine methyltransferase) 7) | 2 | 61 | 83.7 | inactive |
| Setd7 (SET domain containing (lysine methyltransferase) 7) | 3 | 58.3 | 67.8 | inactive |
| Adh7 (alcohol dehydrogenase 7 (class IV), mu or sigma polypeptide) | 1 | 68.1 | 69.5 | inactive |
| Adh7 (alcohol dehydrogenase 7 (class IV), mu or sigma polypeptide) | 2 | 139 | 96.3 | active |
| Adh7 (alcohol dehydrogenase 7 (class IV), mu or sigma polypeptide) | 3 | 87.8 | 81.8 | inactive |
| Scn4a (sodium channel, voltage-gated, type IV, alpha) | 1 | 90.8 | 100 | inactive |
| Scn4a (sodium channel, voltage-gated, type IV, alpha) | 2 | 112 | 88.3 | inactive |
| Scn4a (sodium channel, voltage-gated, type IV, alpha) | 3 | 88.2 | 69.1 | inactive |

The list goes on; the last 3 above are carried over.
| gene | reagent no. | GFP, % of control | viability (ATP), % of control | activity call |
| --- | --- | --- | --- | --- |
| Scn4a (sodium channel, voltage-gated, type IV, alpha) | 1 | 90.8 | 100 | inactive |
| Scn4a (sodium channel, voltage-gated, type IV, alpha) | 2 | 112 | 88.3 | inactive |
| Scn4a (sodium channel, voltage-gated, type IV, alpha) | 3 | 88.2 | 69.1 | inactive |
| Wfdc13 (WAP four-disulfide core domain 13) | 1 | 71.7 | 48.6 | inactive |
| Wfdc13 (WAP four-disulfide core domain 13) | 2 | 146 | 66 | active |
| Wfdc13 (WAP four-disulfide core domain 13) | 3 | 95.2 | 92.4 | inactive |
| Fxn (frataxin) | 1 | 44.9 | 48.1 | inactive |
| Fxn (frataxin) | 2 | 83.6 | 85.3 | inactive |
| Fxn (frataxin) | 3 | 63.1 | 32.9 | inactive |
| Neil3 (nei like 3 (E. coli)) | 1 | 97.8 | 89.5 | inactive |
| Neil3 (nei like 3 (E. coli)) | 2 | 71.4 | 82.8 | inactive |
| Neil3 (nei like 3 (E. coli)) | 3 | 22.5 | 51.8 | inactive |
| 8030451A03Rik (RIKEN cDNA 8030451A03 gene) | 1 | 14.5 | 33.6 | inactive |
| 8030451A03Rik (RIKEN cDNA 8030451A03 gene) | 2 | 104 | 104 | inactive |
| 8030451A03Rik (RIKEN cDNA 8030451A03 gene) | 3 | 138 | 151 | active |
| Prmt8 (protein arginine N-methyltransferase 8) | 1 | 101 | 62.4 | inactive |
| Prmt8 (protein arginine N-methyltransferase 8) | 2 | 90.2 | 80.3 | inactive |
| Prmt8 (protein arginine N-methyltransferase 8) | 3 | 76.5 | 48.4 | inactive |
| Emilin2 (elastin microfibril interfacer 2) | 1 | 86 | 114 | inactive |
| Emilin2 (elastin microfibril interfacer 2) | 2 | 62.8 | 86.4 | inactive |
| Crhr1 (corticotropin releasing hormone receptor 1) | 1 | 61.2 | 59.6 | inactive |
| Crhr1 (corticotropin releasing hormone receptor 1) | 2 | 51.2 | 63.6 | inactive |
| Crhr1 (corticotropin releasing hormone receptor 1) | 3 | 49.5 | 59.4 | inactive |
| Ephx1 (epoxide hydrolase 1, microsomal) | 1 | 92.1 | 133 | inactive |
| Ephx1 (epoxide hydrolase 1, microsomal) | 2 | 77.1 | 83.3 | inactive |
| Ephx1 (epoxide hydrolase 1, microsomal) | 3 | 102 | 66 | inactive |
